Experimental data: article PMC6090974
These are yes or no findings as the source states them, for the method shown. In cells and extracts the contact can be indirect. Some entries that bind do so weakly or less than the wild type. For part of these data: Tags and fused reporters may be left off the sequences shown.

Sequences of proteins named here, by UniProt entry; tags and fusion partners are left off. A change or cut given only in a name is not applied to a line headed by its entry.
UniProt Q92769: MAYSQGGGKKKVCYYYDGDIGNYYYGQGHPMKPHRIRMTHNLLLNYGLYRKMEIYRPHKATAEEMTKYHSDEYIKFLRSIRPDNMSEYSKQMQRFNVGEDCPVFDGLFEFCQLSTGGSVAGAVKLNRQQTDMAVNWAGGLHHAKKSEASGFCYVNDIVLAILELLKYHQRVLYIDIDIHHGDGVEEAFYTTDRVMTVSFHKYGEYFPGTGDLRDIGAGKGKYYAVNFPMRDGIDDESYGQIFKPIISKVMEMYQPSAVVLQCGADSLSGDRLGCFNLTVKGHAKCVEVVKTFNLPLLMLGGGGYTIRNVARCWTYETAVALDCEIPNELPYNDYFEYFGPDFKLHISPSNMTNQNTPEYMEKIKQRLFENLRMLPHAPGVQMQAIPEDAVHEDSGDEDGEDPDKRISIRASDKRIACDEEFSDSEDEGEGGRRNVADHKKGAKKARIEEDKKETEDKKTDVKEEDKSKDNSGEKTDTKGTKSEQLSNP

What was measured:
[1] = molecular target: T1, Tricho-rhino-phalangeal syndrome 1 (TRPS1) transcription factor, endogenous (human (endogenous in MCF7 and T47D)) (UniProt Q9UHF7); test: co-IP; endogenous proteins, MCF7 and T47D lysates, anti-TRPS1 antibody with protein A/G agarose overnight at 4 °C, immunoblot
T1 sequence: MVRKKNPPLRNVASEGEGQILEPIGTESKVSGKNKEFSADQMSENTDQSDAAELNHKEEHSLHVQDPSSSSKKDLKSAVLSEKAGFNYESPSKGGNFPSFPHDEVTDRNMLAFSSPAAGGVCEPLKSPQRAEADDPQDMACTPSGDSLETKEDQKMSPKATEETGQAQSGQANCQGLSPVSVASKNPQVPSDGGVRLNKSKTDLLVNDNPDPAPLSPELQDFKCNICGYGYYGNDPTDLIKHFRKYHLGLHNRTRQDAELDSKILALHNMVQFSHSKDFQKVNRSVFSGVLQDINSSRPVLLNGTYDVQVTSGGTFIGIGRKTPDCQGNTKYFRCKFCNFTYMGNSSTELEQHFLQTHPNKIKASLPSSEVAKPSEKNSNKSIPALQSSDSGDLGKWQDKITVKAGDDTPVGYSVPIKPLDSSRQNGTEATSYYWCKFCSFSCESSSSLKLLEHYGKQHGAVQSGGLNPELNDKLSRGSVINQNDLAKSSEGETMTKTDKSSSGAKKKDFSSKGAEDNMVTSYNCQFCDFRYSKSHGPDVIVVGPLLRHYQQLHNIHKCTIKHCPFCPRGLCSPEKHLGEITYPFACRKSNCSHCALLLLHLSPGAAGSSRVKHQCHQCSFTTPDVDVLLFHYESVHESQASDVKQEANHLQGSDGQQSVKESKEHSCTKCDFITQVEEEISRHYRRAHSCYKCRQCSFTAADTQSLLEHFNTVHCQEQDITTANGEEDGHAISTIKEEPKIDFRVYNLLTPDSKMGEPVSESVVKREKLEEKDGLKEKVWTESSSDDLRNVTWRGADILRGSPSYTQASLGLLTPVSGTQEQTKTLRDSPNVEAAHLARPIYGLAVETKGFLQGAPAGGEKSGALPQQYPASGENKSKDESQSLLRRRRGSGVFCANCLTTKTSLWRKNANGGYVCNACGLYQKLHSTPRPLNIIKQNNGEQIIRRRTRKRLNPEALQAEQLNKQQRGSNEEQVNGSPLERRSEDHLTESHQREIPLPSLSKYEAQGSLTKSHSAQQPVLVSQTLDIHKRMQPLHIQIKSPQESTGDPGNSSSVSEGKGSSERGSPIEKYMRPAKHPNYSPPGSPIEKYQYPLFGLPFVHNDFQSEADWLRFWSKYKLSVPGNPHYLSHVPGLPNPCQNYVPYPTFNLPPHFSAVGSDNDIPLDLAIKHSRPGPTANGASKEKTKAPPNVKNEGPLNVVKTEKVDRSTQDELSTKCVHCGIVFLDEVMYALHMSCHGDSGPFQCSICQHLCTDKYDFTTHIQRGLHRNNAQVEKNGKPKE

[2] = molecular target: T1, Tricho-rhino-phalangeal syndrome 1 (TRPS1) transcription factor, endogenous (human (endogenous in MCF7 and T47D)); test: co-IP; sequential co-IP: MCF7 lysate, control IgG or anti-TRPS1 antibody, eluted from agarose beads with 50 mM Tris-HCl pH 7.4, 900 mM NaCl, 1 mM EDTA, 1% Triton X-100, then a second immunoprecipitation with the indicated antibodies
[3] = molecular target: Histone deacetylase 2 (HDAC2), endogenous (human (endogenous in MCF7 and T47D)) (UniProt Q92769); test: co-IP; endogenous proteins, MCF7 and T47D lysates, anti-HDAC2 antibody; cells with control or TRPS1 siRNA
[4] = molecular target: T1, Tricho-rhino-phalangeal syndrome 1 (TRPS1) transcription factor, endogenous (human (endogenous in MCF7 and T47D)); test: co-IP; endogenous proteins, MCF7 and T47D lysates, anti-TRPS1 antibody with protein A/G agarose overnight at 4 °C, immunoblot; remark: listed apart in the source
[5] = molecular target: Myc-HDAC2 (pCDNA3.1-Myc-HDAC2) (UniProt Q92769); test: co-IP; HEK293T co-transfected with Flag-USP4, Myc-HDAC2 and with or without Flag-TRPS1; anti-Myc antibody, immunoblot

| Molecule | binding [1] | binding [2] | binding [3] | binding [4] | binding [5] |
| --- | --- | --- | --- | --- | --- |
| Histone deacetylase 2 (HDAC2), endogenous (from UniProt Q92769 1-488) | binds | binds | – | – | – |
| Ubiquitin-specific protease 4 (USP4), endogenous (enzyme, UniProt Q13107 1-963) MAEGGGCRERPDAETQKSELGPLMRTTLQRGAQWYLIDSRWFKQWKKYVGFDSWDMYNVGEHNLFPGPIDNSGLFSDPESQTLKEHLIDELDYVLVPTEAWNKLLNWYGCVEGQQPIVRKVVEHGLFVKHCKVEVYLLELKLCENSDPTNVLSCHFSKADTIATIEKEMRKLFNIPAERETRLWNKYMSNTYEQLSKLDNTVQDAGLYQGQVLVIEPQNEDGTWPRQTLQSKSSTAPSRNFTTSPKSSASPYSSVSASLIANGDSTSTCGMHSSGVSRGGSGFSASYNCQEPPSSHIQPGLCGLGNLGNTCFMNSALQCLSNTAPLTDYFLKDEYEAEINRDNPLGMKGEIAEAYAELIKQMWSGRDAHVAPRMFKTQVGRFAPQFSGYQQQDSQELLAFLLDGLHEDLNRVKKKPYLELKDANGRPDAVVAKEAWENHRLRNDSVIVDTFHGLFKSTLVCPECAKVSVTFDPFCYLTLPLPLKKDRVMEVFLVPADPHCRPTQYRVTVPLMGAVSDLCEALSRLSGIAAENMVVADVYNHRFHKIFQMDEGLNHIMPRDDIFVYEVCSTSVDGSECVTLPVYFRERKSRPSSTSSASALYGQPLLLSVPKHKLTLESLYQAVCDRISRYVKQPLPDEFGSSPLEPGACNGSRNSCEGEDEEEMEHQEEGKEQLSETEGSGEDEPGNDPSETTQKKIKGQPCPKRLFTFSLVNSYGTADINSLAADGKLLKLNSRSTLAMDWDSETRRLYYDEQESEAYEKHVSMLQPQKKKKTTVALRDCIELFTTMETLGEHDPWYCPNCKKHQQATKKFDLWSLPKILVVHLKRFSYNRYWRDKLDTVVEFPIRGLNMSEFVCNLSARPYVYDLIAVSNHYGAMGVGHYTAYAKNKLNGKWYYFDDSNVSLASEDQIVTKAAYVLFYQRRDDEFYKTPSLSSSGSSDGGTRPSSSQQGFGDDEACSMDTN | – | binds | binds | binds | – |
| Flag-USP4 (pCDNA3.1-Flag-USP4) (enzyme, UniProt Q13107 1-963) MAEGGGCRERPDAETQKSELGPLMRTTLQRGAQWYLIDSRWFKQWKKYVGFDSWDMYNVGEHNLFPGPIDNSGLFSDPESQTLKEHLIDELDYVLVPTEAWNKLLNWYGCVEGQQPIVRKVVEHGLFVKHCKVEVYLLELKLCENSDPTNVLSCHFSKADTIATIEKEMRKLFNIPAERETRLWNKYMSNTYEQLSKLDNTVQDAGLYQGQVLVIEPQNEDGTWPRQTLQSKSSTAPSRNFTTSPKSSASPYSSVSASLIANGDSTSTCGMHSSGVSRGGSGFSASYNCQEPPSSHIQPGLCGLGNLGNTCFMNSALQCLSNTAPLTDYFLKDEYEAEINRDNPLGMKGEIAEAYAELIKQMWSGRDAHVAPRMFKTQVGRFAPQFSGYQQQDSQELLAFLLDGLHEDLNRVKKKPYLELKDANGRPDAVVAKEAWENHRLRNDSVIVDTFHGLFKSTLVCPECAKVSVTFDPFCYLTLPLPLKKDRVMEVFLVPADPHCRPTQYRVTVPLMGAVSDLCEALSRLSGIAAENMVVADVYNHRFHKIFQMDEGLNHIMPRDDIFVYEVCSTSVDGSECVTLPVYFRERKSRPSSTSSASALYGQPLLLSVPKHKLTLESLYQAVCDRISRYVKQPLPDEFGSSPLEPGACNGSRNSCEGEDEEEMEHQEEGKEQLSETEGSGEDEPGNDPSETTQKKIKGQPCPKRLFTFSLVNSYGTADINSLAADGKLLKLNSRSTLAMDWDSETRRLYYDEQESEAYEKHVSMLQPQKKKKTTVALRDCIELFTTMETLGEHDPWYCPNCKKHQQATKKFDLWSLPKILVVHLKRFSYNRYWRDKLDTVVEFPIRGLNMSEFVCNLSARPYVYDLIAVSNHYGAMGVGHYTAYAKNKLNGKWYYFDDSNVSLASEDQIVTKAAYVLFYQRRDDEFYKTPSLSSSGSSDGGTRPSSSQQGFGDDEACSMDTN | – | – | – | – | binds |
